Test results reported in PubChem BioAssay AID540276 (National Center for Advancing Translational Sciences (NCATS), 2011).
The campaign covered roughly 300,000 compounds. About 5,400 (1.8%) were called active. Inconclusive means that the source gave no clear call. Such entries were picked first, then a sample of the others. Calls come from the whole dose curve; tested in HEK293 cells. Potencies beside an inconclusive call are fits to weak or partial responses and may not hold up.

Assay: qHTS for inhibitors of binding or entry into cells for Marburg Virus
Settings: Marburg virus pseudotyped entry inhibition, cell reporter; series mostly up to 37.8 µM
Potency is the fitted concentration of half-maximal effect.

| SMILES | Potency |
| --- | --- |
| COc1cc(C2/C(=C(\O)c3ccc4c(c3)CC(C)O4)C(=O)C(=O)N2CCCn2ccnc2)cc(OC)c1OC (stereo not drawn) | inactive |
| CC1(C)CC(CCN)(Cc2ccccc2Cl)CCO1 (stereo not drawn) | inconclusive: 7.94 µM [inhibitor, partial curve, poor fit] |
| CCN(CC)C(=O)C1CC(=O)OC12CCCCC2 (stereo not drawn) | inactive |
| COc1ccccc1CNC(=O)C1CCC(CNS(=O)(=O)c2ccc(F)cc2)CC1 (stereo not drawn) | inconclusive: 35.5 µM [inhibitor, single point] |
| CCN1CCN(c2cc(C)c3cc(NC(=O)/C=C/c4cccc(Cl)c4)ccc3n2)CC1 | active: 5.62 µM |
| O=C(Nc1ccc(NC(=O)c2ccco2)nc1)c1ccccn1 | inconclusive: 10 µM [inhibitor, partial curve, poor fit] |
| COc1ccc(CNC(=O)CN2C(=O)NC3(CCCCCCC3)C2=O)cc1 | inconclusive: 1 µM [inhibitor, single point] |
| COc1ccc2nc(Nc3nc(-c4ccncc4)cs3)sc2c1 | inconclusive: 1.12 µM [inhibitor, full curve] |
| CCOC(=O)c1ccc(-c2c(C(=O)OCC)oc3cc(O)c(CC)cc3c2=O)o1 | inconclusive: 0.411 µM [inhibitor, full curve] |
| OC[C@H](O)[C@H](O)[C@@H](O)[C@@H](O)[C@@H]1SC(c2ccccc2)=NN1c1ccccc1 | inconclusive: 10 µM [inhibitor, partial curve, poor fit] |
| O=C(Nc1ccc(F)c(F)c1)c1ccc(F)c(S(=O)(=O)N2CCOCC2)c1 | inactive |
| C=CCc1c(O)nc(SCC(=O)c2ccccc2)[nH]c1=O | inconclusive: 0.891 µM [inhibitor, partial curve, poor fit] |
| O=C(NC1CCCCCC1)C(=O)NC1CCCC1 | inconclusive: 0.562 µM [activator, partial curve, poor fit] |
| CSc1nc(Cl)c(Cc2ccc(OC(C)C)cc2)c(N(C)C)n1 | inconclusive: 35.5 µM [inhibitor, single point] |
| CCC(=O)NS(=O)(=O)c1cccnc1Nc1ccc(Cl)cc1 | inconclusive: 35.5 µM [inhibitor, partial curve, poor fit] |
| Cc1n[nH]c(=S)n1/N=C/c1ccc(-c2ccccc2[N+](=O)[O-])o1 | inactive |
| Cc1onc(-c2c(Cl)cccc2Cl)c1C(=O)N=C(N)N1CCCC1 | inconclusive: 3.16 µM [inhibitor, partial curve, poor fit] |
| COc1ccc(C)cc1-n1c(SCC(=O)Nc2cc(C)on2)nc2ccccc2c1=O | inconclusive: 11.2 µM [inhibitor, partial curve, poor fit] |

As entered above:
Potency with CSc1nc(Cl)c(Cc2ccc(OC(C)C)cc2)c(N(C)C)n1 is entered as inconclusive: 35.5 µM [inhibitor, single point]
Potency with O=C(Nc1ccc(F)c(F)c1)c1ccc(F)c(S(=O)(=O)N2CCOCC2)c1 is entered as inactive
